Primary screen of a compound library

Data taken from ChEMBL document CHEMBL3988442, “University of Dundee, Small-Polar-MMV Screening Library” (2021).

Each number is a percent effect as filed. The record does not define 0% and 100%; most values in the screen are far below 50% and negative numbers occur (in some assays of this library far below -100). The compounds are a random part of those screened. Two or more numbers in one place are separate tests of the same structure; such repeats can differ widely.

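Whole-cell growth test on Mycobacterium tuberculosis, read after 4 days in a medium based on cholesterol and the lipid DPPC; the read-out is not stated. Concentration: 50 µM. Direction is inferred from retests: higher values go with more growth inhibition. Of about 69,000 compounds tested this way, about 370 (0.54%) reached 50% or more in at least one test.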

SMILES	Percent Effect
Clc1cccc(Cl)c1CNCCOc1ccccn1	14.99%
[H][C@]12CC[C@]([H])(CN(c3ncccn3)C1)N(C(=O)Cn1ccnc1CC)C2	-11.76%
COCCN1CCCC1c1nccnc1Nc1ncc(C)s1 (stereo not shown)	11.25%
O=C(c1cc(-n2cccn2)ccn1)N1CCOc2ncccc21	-1.276%
CN1CCC(c2nnc(CN3CCCCC3)n2C)CC1	-14.51%
O=C1N(Cc2cccc(F)c2F)CCCC1(O)CNC1CCCC1 (stereo not shown)	24.94%
O=C(CNC(=O)c1cnc2ccccc2c1O)NCCCn1ccnc1	-22.05%
COc1ccccc1-n1cc(C(=O)NCCn2nc(C)nc2C)cn1	-15.94%
Cc1noc(C)c1CN1CCCC2(CCN(C(=O)NC3CC3)C2)C1.O=C(O)C(F)(F)F (stereo not shown)	-20.24%
Cc1nc(C)n(C2CCCN(C(=O)c3csnn3)C2)n1 (stereo not shown)	-17.47%
Cc1ccccc1N1CCN(C(=O)Cc2ccc3c(c2)OCO3)CC1=O	-24.08%
NC1CCCc2c1cnn2-c1cc(F)cc(F)c1 (stereo not shown)	8.739%
O=C(NC1CCCN(Cc2c(F)cccc2F)C1)c1cnccn1 (stereo not shown)	19.51%
Cc1cccc(C(C(=O)N2CC(Oc3ccccc3F)C2)N(C)C)c1 (stereo not shown)	-20.55%
Nc1ncc(CN2CCC(O)(c3ccccc3F)CC2)cn1	5.771% & -5.352%
Cc1cccc(N2CCCN=C2NC(=O)c2cccc(Cl)c2)c1	0.3009%
CC(CS(C)(=O)=O)N(C(=O)Nc1ccc(F)cc1F)C1CC1 (stereo not shown)	9.33%
O=C(CSCCN1CCOCC1)N1CCCCCC1	-16.14%
Cn1cc(C2CCCN2Cc2csc(Cc3ccccc3)n2)cn1 (stereo not shown)	-2.35%
O=C(C1CC=CC1)N1CCC2(CCN(Cc3cccc(F)c3)CC2)C1	26.53%
COCCS(=O)(=O)NC(C)c1cccc(-n2cccn2)c1 (stereo not shown)	14.6%
CS(=O)(=O)CCNCc1ccc(OCc2cscn2)cc1	-12.14%
O=C(O)C1(Oc2ccccc2)CCN(c2ccncc2)CC1	-11.07% & -7.535%
COc1ccc(C(CNS(=O)(=O)c2cn(C)nc2C)N2CCCC2)cc1.Cl (stereo not shown)	-8.429% & -37.38%
O=C(O)C(F)(F)F.O=C(O)C(F)(F)F.[H][C@@]12CN(CC3CC3)C[C@]1([H])OCCN2c1ccc(C)nn1	-15.11%
O=C(CCNc1ncccn1)N1CCCC(n2cccn2)C1 (stereo not shown)	-30.52%
[H][C@@]12COC[C@@H](CC(=O)NCCOC)[C@]1([H])CN(Cc1cccnc1)C2	-12.33%
CCc1ncc2c(n1)CN(Cc1nc(-c3ccoc3)no1)CC2	-0.249%
Cc1cc(C)n(CC2CCCCN2CC(=O)Nc2nnc(C)s2)n1 (stereo not shown)	6.19%
CCn1cc(CN2CCCN(C(=O)CCN3CCCC3=O)CC2)cn1	-11.32%
COc1ncccc1CN1CCc2[nH]nc(C(=O)N(C)C)c2C1	13.58%
CC(NC(=O)N1CCC1)c1ccc(S(C)(=O)=O)cc1 (stereo not shown)	1.722%
Cl.c1cc(CNCc2ccc(-n3cncn3)nc2)cc(OC2CCCC2)c1	57.55%
Cc1cc(C)c(CNC(=O)NCC2Cc3ccccc3O2)c(=O)[nH]1 (stereo not shown)	-2.708%
CCOCCC(=O)Nc1cc(C(N)=O)ccc1N1CCCC(C)C1 (stereo not shown)	12.85%
O=C(O)C(F)(F)F.[H][C@]12CC[C@@]3(N=C(CC)N(CC4CC4)C3=O)[C@@]1([H])CN(CC1CC1)C2	-20.56%
Cc1ccn(CCNc2ncnc3c2CCN(Cc2ncc[nH]2)CC3)n1	-31.33%
Cc1cc(C)n(CC2CN(CC(=O)Nc3cccnc3)CCO2)n1 (stereo not shown)	7.467%
CCN1CCCC1CNCc1cc2cc3c(cc2[nH]c1=O)OCCO3 (stereo not shown)	19.35%
CC(C)n1nc2c(cc1=O)CN(Cc1nc(-c3ccoc3)no1)CC2	-29.06%
CN1CCCC(CCC(=O)N2CCc3[nH]c(-c4ccccc4)nc3C2)C1 (stereo not shown)	-8.959%
CCOc1ncccc1CNC(=O)NC(C)Cn1cccn1 (stereo not shown)	-4.666%
Cc1nc(-c2nnc[nH]2)sc1C(=O)N1CCCC(C(F)(F)F)C1 (stereo not shown)	-4.209%
Cc1cc(CN2CCCC2c2noc(C)n2)no1 (stereo not shown)	0.1892%
c1ccc(C(CNc2ncccn2)N2CCOCC2)nc1 (stereo not shown)	4.818%
O=C(O)C(F)(F)F.[H][C@@]12C[C@H](C(=O)NCC3CC3)C[C@]1([H])OCCN2	-7.529%
CCCc1noc(CCCC(=O)N2CCCC(n3ccnc3C)C2)n1 (stereo not shown)	4.1%
COc1cccc(CC2CN(C3CCCCC3)CCO2)c1 (stereo not shown)	-39.83%
COc1c(C)cnc(CNC(=O)CCOCc2ccccc2)c1C	-9.641%
CCOc1ccc(CN2CCC(c3[nH]ncc3C)C2)cc1CO (stereo not shown)	-3.157% & -10.13%
OC(COCc1ccccc1)CN1CCC(c2ccn[nH]2)CC1 (stereo not shown)	-0.9099%
O=C1CN(C(=O)c2nnn(-c3ccc(C(F)(F)F)cc3)n2)CCN1	5.441%
CC(=O)NCc1ccc(C(=O)N2CCCC2c2c(C)nn(C)c2C)o1 (stereo not shown)	-12.1%
c1cnnc(N2CCCC(NCc3ccc(-n4cccn4)cc3)C2)c1 (stereo not shown)	-9.633%
CC(C)(C)NC(=O)C1CCCCN1Cc1nccn1CC(F)(F)F (stereo not shown)	12.88%
CCN(Cc1nc(C)no1)C(=O)C1CC(=O)N(Cc2ccccn2)C1 (stereo not shown)	13.3%
NS(=O)(=O)c1ccc(NCc2ccccc2F)cc1C(F)(F)F	32.03%
CN(Cc1ccc(Cl)s1)C(=O)CN1CC(n2cccn2)C1	8.776%
Cn1nc(C(=O)NC2CCCCC2)cc1NC(=O)C1CC1	7.438%
Cc1nc(N2CCCC2)nc2c1CN(C(=O)c1ccco1)CC2	7.284%
Cc1ccc(C(O)CN(C)Cc2cnn(C)c2)cc1C (stereo not shown)	13.38%
CS(=O)(=O)N1CCc2[nH]nc(Cc3cccs3)c2C1	-11.26%
CCc1ncnc2c1CCN(C(=O)c1ccccn1)CC2.O=C(O)C(F)(F)F	-20.82%
O=S(=O)(N1CCN(CC2CC2)CC1)N1CCCC1c1ccco1 (stereo not shown)	9.115%
Oc1cc(CC2COCCN(CC3(O)CCOCC3)C2)ncn1 (stereo not shown)	-24.83%
CC(C)c1noc(CCC(=O)N2CCSCC2)n1	-1.9%
N#Cc1cc(NC(=O)c2ccccn2)ccc1N1CCC(O)CC1	36.35%
CS(=O)(=O)N1CCOC2(CCCC2)C1	-4.605%
CC1CN(CC(=O)Nc2nccs2)CCN1Cc1nccn1C (stereo not shown)	-6.83%
CCOCc1cc(CN2CCn3c(CO)nnc3C2)ccc1OC.O=C(O)CC(O)(CC(=O)O)C(=O)O	-8.316%
CC(C)Cc1ncc2c(n1)CN(c1nc(N(C)C)nc3c1CCCC3)C2	-8.416%
CC1CN(C(=O)c2sccc2Br)CCO1 (stereo not shown)	-7.944%
CN(C)c1cc2c(nn1)CCN(C(=O)c1cc3c(s1)CCCC3)C2	-20.46%
CC(C)(C)NC(=O)C[C@@H]1CCNC[C@@H]1Cc1cc(C(C)(C)C)on1	21.68%
CNC(=O)c1cn2cc(-c3ccccc3Cl)n(CC3CC3)c(=O)c2n1	-9.22%
COc1ccc(F)cc1S(=O)(=O)NCC(O)c1sccc1C (stereo not shown)	-6.423%
CS(=O)(=O)N1CCCC1c1cccc(Nc2nccs2)n1 (stereo not shown)	-5.55%
CC(C)n1cc(CN2CCCN(C(=O)C(C)n3cccn3)CC2)cn1 (stereo not shown)	8.712%
O=C(Cc1ccc(F)cc1)NCC1CCN(Cc2ccsc2)CC1	13.76%
CC(CNS(C)(=O)=O)c1ccc(F)c(F)c1 (stereo not shown)	-4.576%
Cc1cccc(OCCN2CCN(Cc3cnn(CCO)c3)CC2)c1	4.516%
Cc1noc(CCCC(=O)N(CC2CCOC2)C2CC2)n1 (stereo not shown)	5.857%
CC1(C)CC(=O)N(CC(=O)Nc2ccon2)c2ccccc21	10.87%
CC(=O)N1CCC(N2CC[C@H](c3nc4cc(F)ccc4o3)C2)CC1	0.5846%
Cc1ccc(S(=O)(=O)NC(C)(C)CN)c(F)c1.Cl	18.02%
COCCN1CCN(CC(=O)NC2(C#N)CCCC2)CC1	-11.01%
O=C(CCn1cccn1)N1CCC(c2nnc(-c3ccccn3)o2)CC1	2.003% & -4.775%

5 of the entries, repeated:

* [H][C@@]12COC[C@@H](CC(=O)NCCOC)[C@]1([H])CN(Cc1cccnc1)C2 | -12.33%
* Cc1cccc(N2CCCN=C2NC(=O)c2cccc(Cl)c2)c1 | 0.3009%
* Cc1cccc(C(C(=O)N2CC(Oc3ccccc3F)C2)N(C)C)c1 (stereo not shown) | -20.55%
* Nc1ncc(CN2CCC(O)(c3ccccc3F)CC2)cn1 | 5.771% & -5.352%
* CC(C)(C)NC(=O)C1CCCCN1Cc1nccn1CC(F)(F)F (stereo not shown) | 12.88%